# Source: patent publication US6747039B2, “Aza-benzothiopyranoindazoles with antitumor activity” (Albany Molecular Research, Inc., priority 2002, dated 2004)
# Test system: HeLa S-3 cells
# Assay: Inhibition of cell growth (sulforhodamine B) to determine GI50
# Type: cell-based
# Conditions: aza-analog versus its carbocyclic congener, HeLa cells; Table 5
# Procedure: Growth inhibition (GI50) values were measured with HeLa S-3 cells selected for growth on plastic. The procedure was based on the protocol of Skehan et al. (Skehan, P., et al., J. Natl. Cancer Inst., 82:1107-1112 (1990), which is hereby incorporated by reference). HeLa cells were plated at 2×10^4 cells/well in 96 well plates. One day later, a control plate was fixed by addition of TCA to 5%. After five rinses with tap water, the plate was air dried and stored at 4° C. Test compounds were added to the remaining plates at 10-fold dilutions between 0.01 and 100 μM. Two days later, all plates were fixed as described above. Cells were then stained by the addition of 100 μl per well of 0.4% sulforhodamine B (SRB) in 1% acetic acid for 30 min at 4° C. Wells were then quickly rinsed 5× with acetic acid (1%) and allowed to air dry. The SRB was then solubilized by the addition of 100 μl per well of unbuffered 10 mM Tris base. Dye was quantified by measuring absorbance at 490 nm on a Molecular Devices kinetic microplate reader. Growth at each inhibitor concentration relative to the untreated control was calculated according to the following equation: percent growth=100×(T−To)/(C−To), where T was the average optical density (OD) of the test wells after 2 days of treatment, To was the average OD of the wells in the control plate on day 0 and C was the average OD of untreated wells. Plots of percent growth versus inhibitor concentration were used to determine the GI50.
# The data below shown in Table 4 summarizes the in vitro cyclin/cdk inhibition constants (IC50) of HeLa Cells for the compounds of the current invention.
row,Structure (SMILES),Fold Improvement
1,CCN(CC)CCNc1cccc2sc3ccncc3c(=O)c12,3.5
2,CCN(CC)CCNc1ccc(CNC=O)c2sc3ccncc3c(=O)c12,3
3,CCN(CC)CCNc1ccc(CN)c2sc3ccncc3c(=O)c12,1
4,CCN(CC)CCNc1ccc(CNS(C)(=O)=O)c2sc3ccncc3c(=O)c12,7.5
5,CCN(CC)CCNc1ccc(CNC(=O)OC)c2sc3ccncc3c(=O)c12,10
6,CCN(CC)CCn1nc2c3c(cccc31)Sc1ccncc1-2,9
7,CCN(CC)CCn1nc2c3c(c(CN)ccc31)Sc1ccncc1-2 [drawing 112],5
8,CCN(CC)CCn1nc2c3c(c(CNC=O)ccc31)Sc1ccncc1-2 [drawing 114],5
9,CCN(CC)CCn1nc2c3c(c(CNC(=O)OC)ccc31)Sc1ccncc1-2 [drawing 116],30
10,CCN(CC)CCn1nc2c3c(c(CNS(C)(=O)=O)ccc31)Sc1ccncc1-2 [drawing 118],3
11,CCN(CC)CCn1nc2c3c(c(CNC(=O)OC)ccc31)Sc1ncccc1-2 [drawing 120],6
12,CCN(CC)CCn1nc2c3c(c(CNS(C)(=O)=O)ccc31)Sc1ncccc1-2 [drawing 122],3
13,CCN(CC)CCn1nc2c3c(c(CN)ccc31)Sc1ncccc1-2 [drawing 124],5
14,CCN(CC)CCn1nc2c3c(c(CNC=O)ccc31)Sc1ncccc1-2 [drawing 126],2

# Same assay, conditions: ratio of GI50 of second compound to first compound of pair (nitrogen position); Table 6
row,Structure (SMILES),Folds
1,CCN(CC)CCn1nc2c3c(c(C)ccc31)Sc1ccncc1-2,6
2,CCN(CC)CCNc1ccc(C)c2sc3ccncc3c(=O)c12,7.5
3,CCN(CC)CCn1nc2c3c(c(CN)ccc31)Sc1ccncc1-2 [drawing 127],1
4,CCN(CC)CCn1nc2c3c(c(CNC=O)ccc31)Sc1ccncc1-2 [drawing 129],10
5,CCN(CC)CCn1nc2c3c(c(CNC(=O)OC)ccc31)Sc1ccncc1-2 [drawing 131],5
6,CCN(CC)CCn1nc2c3c(c(CNS(C)(=O)=O)ccc31)Sc1ccncc1-2 [drawing 133],1.5
